# Literature values in patent US20060210650A1, “Supplemental dietary composition for promoting weight loss” (priority 2004, published 2006).
# Some results were stated once for a whole list of compounds, not compound by compound.
# Conditions: over 8 weeks; compared to a control group
structure (smiles),measurement,value
"O=C(O)CC(O)(C(=O)O)C(O)C(=O)O (single isomer, unassigned; (-)) [HCA, (−) hydroxycitric acid]",Decrease in BMI,5-6%
same,Decrease in body weight,5-6%
